Measured values as given in PubChem BioAssay AID624297 (National Center for Advancing Translational Sciences (NCATS), 2012).
“And” between values parts separate entries of the source, which are not always exact repeats. Equal values may be shown once. The campaign covered roughly 340,000 compounds. About 6,200 (1.8%) were called active. Inconclusive means that the source gave no clear call. Such entries were picked first, then a sample of the others. The call rests on the fitted dose curve; in most records, active means well fitted activation curve with a large enough effect; inconclusive means small, poorly fitted or top-dose-only effect; inactive means no such curve, though single readings can be large or run the other way. Where the call is inconclusive, the potency comes from a doubtful curve fit.

assay: A quantitative high throughput screen for small molecules that induce DNA re-replication in SW480 colon adenocarcinoma cells.; further: nearly all actives have a fitted effect of over 55% in size; on re-replication activation: % of control where 0% means no effect; conditions: Hoechst DNA content imaging, 48 h; re-replication activation: at 46.1 µM (top of the series) unless noted
Summary of the method: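 Compounds, transferred as 23 nL by pin tool, were incubated with cells for 48 hr; DNA content per nucleus was then quantified by Hoechst staining and fluorescence plate imaging.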
Potency means the concentration at half of the fitted maximal effect.

| SMILES | re-replication activation | Potency |
| --- | --- | --- |
| CC[C@H](C)[C@H]1O[C@]2(CC[C@@H]1C)C[C@@H]1C[C@@H](CC=C(C)[C@@H](O[C@H]3C[C@H](OC)[C@@H](O[C@H]4C[C@H](OC)[C@@H](O)[C@H](C)O4)[C@H](C)O3)[C@@H](C)C=CC=C3CO[C@@H]4[C@H](O)C(C)=C[C@@H](C(=O)O1)[C@]34O)O2 | inactive: -8.9% |  |
| CC(C)(C)c1ccc(C(=O)NC(=S)NCc2cccnc2)cc1 |  | inconclusive: 16.4 µM [activator, partial curve, poor fit] |
| O=S(=O)(Cc1ccccc1)c1cnc2ccccc2n1 |  | inconclusive: 16.4 µM [activator, single point] |
| Cc1cccc(NC(=O)c2nc[nH]c2C(=O)N[C@@H](C)C(=O)OCc2ccccc2)c1 | inactive: 3.26% [at 9.22 µM] |  |
| Clc1ccc([C@H](Cn2ccnc2)OCc2c(Cl)cccc2Cl)c(Cl)c1 | inactive: 11.5% [at 20.6 µM] |  |
| CCc1ccc(NC(=O)CSc2nc3ccccc3c(=O)n2CCCC(=O)N2CCCC2)cc1 |  | inconclusive: 25.9 µM [activator, single point] |
| CCOc1ccccc1NC(=O)c1nnn(-c2ccc3c(c2)OCCO3)c1N |  | inconclusive: 0.58 µM [activator, full curve, poor fit] |
| Cc1ccc(S(=O)(=O)N(CC(=O)N=Nc2c(O)[nH]c3ccccc23)c2ccc(C)c(C)c2)cc1 |  | inconclusive: 29.1 µM [activator, single point] |
| CCN(CCCc1ccccc1)CCCc1ccccc1 |  | inconclusive: 112 nM [activator, full curve, poor fit] and inconclusive: 16.4 µM [activator, partial curve, poor fit] |
| Cc1cccc(C(=O)NCC(c2cccs2)N2CCOCC2)c1 (stereo not given) |  | inconclusive: 20.6 µM [activator, single point] |
| COCCN(Cc1ccccc1)C(=O)c1cc(-c2ccc(OC)c(OC)c2)nc2ccccc12 |  | inconclusive: 20.6 µM [activator, single point] |
| O=C1OCCN/C1=C\C(=O)c1ccccc1 |  | inconclusive: 6.51 µM [activator, partial curve, poor fit] |
| Fc1ccc(Nc2nc(-c3ccncc3)cs2)cc1 |  | inconclusive: 29.1 µM [activator, single point] |
| COc1ccc(Nc2nc(-c3cccs3)nc3ccccc23)c(OC)c1 |  | inconclusive: 29.1 µM [activator, single point] |
| O=C(NCc1ccc2c(c1)OCO2)c1nc(Cn2cc(Br)cn2)no1 | inactive: -10.2% |  |
| CSc1ccc(/C=N/NC(=O)c2ccccc2Cl)cc1 |  | inconclusive: 25.9 µM [activator, single point] |
| CN(Cc1ccccc1)C(=O)c1ccc(NC(=O)Cc2ccc(NC(=O)C3CCCN(C(=O)C4CCCC4)C3)cc2)cc1 (stereo not given) |  | inconclusive: 4.11 µM [activator, partial curve] |
| CCCc1nnc(NC(=O)CCC(=O)N2CCC(C)CC2)s1 |  | inconclusive: 4.11 µM [activator, single point] |
| S=C1NCCOCCOCCNC(=S)N2CCOCCOCCN1CCOCCOCC2 |  | inconclusive: 29.1 µM [activator, single point] |
| COc1ccc(S(=O)Cc2ccc(C(=O)N3CCN(C(=O)c4ccco4)CC3)o2)cc1 (stereo not given) |  | inconclusive: 6.51 µM [activator, single point] |

Quoted from the listing.
For Potency, Cc1cccc(C(=O)NCC(c2cccs2)N2CCOCC2)c1 (stereo not given) has the entry inconclusive: 20.6 µM [activator, single point]
For Potency, CC(C)(C)c1ccc(C(=O)NC(=S)NCc2cccnc2)cc1 has the entry inconclusive: 16.4 µM [activator, partial curve, poor fit]

More compounds follow.

| SMILES | re-replication activation | Potency |
| --- | --- | --- |
| c1ccc(-c2n[nH]c(-c3ccccn3)n2)cc1 |  | inconclusive: 29.1 µM [activator, single point] |
| CCOC(=O)c1ccc(NC(=O)c2nc[nH]c2C(=O)NCC(=O)OC(C)(C)C)cc1 | inactive: -0.991% |  |
| CC(=O)N1CCCc2cc(S(=O)(=O)NC(C(=O)NC3CCCCC3)C(C)C)ccc21 (stereo not given) |  | inconclusive: 4.61 µM [activator, partial curve, poor fit] |
| COc1cccc(CNC(=O)c2ccc(N3CCOCC3)c([N+](=O)[O-])c2)c1 | inactive: -4.96% |  |
| COc1ccccc1-c1cnnc(N/N=C/c2ccc(-c3cccc(Br)c3)o2)n1 | inactive: 1.77% |  |
| CC(C)C[C@@H](CN1CCCC1CN1C(=S)NC[C@@H]1Cc1ccc(O)cc1)N1C[C@H](Cc2ccccc2)N(CCc2ccccc2)C1=S (stereo not given in full) |  | inconclusive: 5.17 µM [activator, full curve, poor fit] |
| COCCNC(=S)N/N=C(\C)c1ccc2cc(OC)ccc2c1 |  | inconclusive: 23.1 µM [activator, single point] |
| CCOC(=O)C1CCN(S(=O)(=O)c2ccc3oc(=O)ccc3c2)CC1 | inactive: 2.58% |  |
| COc1ccc2nc(N3CCCCC3)c(C#N)cc2c1 |  | inconclusive: 18.4 µM [activator, single point] |
| CCCCC(CC)COC(=O)c1ccccc1O (stereo not given) | inactive: 1.82% |  |
| O=C(NNc1ccccn1)c1ccc(Cl)nc1 |  | inconclusive: 23.1 µM [activator, single point] |
| CC(C)c1ccc2[nH]c(O)c(N=NC(=O)c3cccc(S(=O)(=O)Nc4ccccc4Cl)c3)c2c1 | inactive: -3.07% |  |
| COC(=O)Nc1ccc(SCC(=O)c2cccc([N+](=O)[O-])c2)cc1 |  | inconclusive: 18.4 µM [activator, single point] |
| C/C=C(/CCC1NCCc2c1[nH]c1ccccc21)[Si](C)(C)C (stereo not given) |  | inconclusive: 20.6 µM [activator, single point] |
| Cc1[nH]c(=O)[nH]c(=O)c1S(=O)(=O)N1c2ccc(F)cc2CCC1C (stereo not given) | inactive: -13% |  |
| CC1CCc2c(sc(NC(=O)c3ccc(N4C(=O)CCC4=O)cc3)c2C(N)=O)C1 (stereo not given) |  | inconclusive: 23.1 µM [activator, single point] |
| COc1ccc(CCNC(=O)C(=O)NCC2CCCN2S(=O)(=O)c2ccccc2)cc1 (stereo not given) |  | active: 4.61 µM |
| COc1ccc(C(CNC(=O)COc2ccc(F)cc2Br)N2CCCC2)cc1 (stereo not given) | inactive: -3.21% |  |
| C=CCc1cc(/C=N\NC(=O)CSc2nnc(CCCc3ccc(OC)c(C)c3)o2)cc(OC)c1O |  | inconclusive: 25.9 µM [activator, partial curve, poor fit] |
| COc1ccc(-c2cc(-c3ccc(C)cc3)n[nH]2)c(O)c1 |  | inconclusive: 18.4 µM [activator, partial curve, poor fit] |
